The values that follow come from PubChem BioAssay AID1487 (National Center for Advancing Translational Sciences (NCATS), 2009).

The list shows a part of the results. Further columns of the screen follow, without active or inactive calls. The list favours compounds with an active or inconclusive main result. The note in brackets gives the kind of curve behind each potency; many fits are weak.

A short description of the assay: qHTS Assay for Modulators of Lamin A Splicing. Conditions: HeLa LMNA splicing GFP/RFP minigene ratio, 48 h. In short, it runs like this: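 Read-out is the ratio of GFP to DsRed2 object intensity, acquired by 488 nm laser-scanning cytometry on HeLa lamin A-EGFP minigene reporter cells. Compound incubation 48 hrs at 37 °C in Opti-MEM with 2% FBS; DMSO 0.5% final.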

Where [1] appears, read: measured here: GFP splicing reporter channel.
[2] abbreviates: measured here: RFP viability control channel.

Take `COc1ccc(/C=C(/C#N)c2cccnc2)cc1OC`: the AC50 is 11.2 µM [falling, partial curve, poor fit] under setting [1] and 11.2 µM [rising, single point] under setting [2].
Take `O=c1cc(-c2cccs2)oc2ccc(Cl)cc12`: the AC50 under setting [1] was 0.501 µM [falling, full curve, poor fit] and the AC50 under setting [2] is 0.501 µM [falling, full curve].
As for `Cc1ccc(S(=O)(=O)Oc2ccccc2/C=N/O)cc1`, the AC50 by setting is: under setting [1], 1.41 µM [rising, full curve, poor fit]; under setting [2], 17.8 µM [rising, partial curve, poor fit].
`Cc1cc(C(=O)N/N=C/c2ccccn2)n[nH]1`: the AC50 under setting [1] was 2.82 µM [falling, partial curve, poor fit] and the AC50 under setting [2] is 4.47 µM [falling, partial curve].
With `COc1ccccc1-c1nccc(NCc2cccs2)n1`, under setting [1], the half-maximal activity concentration (AC50) was 11.2 µM [falling, partial curve, poor fit].
Consider `CN(C)c1ccc(CNC(=O)CCC(=O)N2Cc3ccccc3Oc3ncccc32)cc1`, for which the AC50 under setting [2] is 5.62 µM [falling, partial curve, poor fit].
As for `CCC(C(=O)Nc1cc(C(=O)Nc2cc(C)ccn2)ccc1Cl)c1ccccc1` (stereo unspecified), the AC50 under setting [1] was 14.1 µM [rising, single point].
On to `CSc1nc(N2CCOCC2)c2c3c(sc2n1)CCCC3`, for which the half-maximal activity concentration (AC50) runs as follows: under setting [1], 14.1 µM [rising, single point]; under setting [2], 15.8 µM [rising, single point].
Take `CCC(C)(C)NC(=O)C1CCN(c2nc(OC)nc(OC)n2)CC1`: under setting [1], the AC50 is 0.158 µM [rising, full curve, poor fit].
Take `CCOc1ccc(NS(=O)(=O)c2cc(NC(=O)c3ccc(C)cc3)ccc2Cl)cc1`: the AC50 under setting [2] is 7.08 µM [rising, partial curve].
On to `CCCCN(C)C(=O)CN1C(=O)CCn2nc(-c3cn(C)c4ccccc34)cc21`, for which the AC50 under setting [1] is 0.0447 µM [falling, full curve, poor fit].
Regarding `CN1CCN(Cc2cc(Cl)c3cccnc3c2OC(=O)c2cccs2)CC1`, the AC50 by setting is: under setting [1], 1.78 µM [rising, single point]; under setting [2], 11.2 µM [rising, partial curve].
With `CC1Cc2ccccc2N1C(=O)c1ccc(N2CCCCC2)c([N+](=O)[O-])c1` (stereo unspecified), the half-maximal activity concentration (AC50) under setting [2] is 15.8 µM [rising, single point].
For the compound `COc1ccc(C(=O)C2CCCN(C(=O)Cc3c(C)noc3C)C2)cc1OC` (stereo unspecified), the AC50 is, setting by setting: under setting [1], 0.0251 µM [falling, full curve, poor fit]; under setting [2], 0.398 µM [falling, full curve, poor fit].
`CCc1cccc(NC(=O)c2nc(-c3ccncc3)no2)c1`: the AC50 under setting [2] is 0.2 µM [falling, full curve].
For `CCN1C(=O)c2cccc3c(S(=O)(=O)Nc4ccccn4)ccc1c23`, the AC50 under setting [1] is 6.31 µM [falling, partial curve, poor fit].
For the compound `Cc1ccc(-n2c(C)cc(C(=O)CSc3nnc4ccccn34)c2C)cc1`, the AC50 is 11.2 µM [rising, partial curve] under setting [1] and 14.1 µM [rising, partial curve] under setting [2].
For `COCC(=O)Nc1cc(Cl)ccc1C`, the concentration at half-maximal activity (AC50) by setting is: under setting [1], 1.26 µM [rising, single point]; under setting [2], 0.794 µM [rising, single point].
In the case of `CCOC(=O)Cc1nnc2c(Nc3ccccc3F)nc3nonc3n12`, the half-maximal activity concentration (AC50) is 12.6 µM [rising, single point] under setting [1] and 15.8 µM [rising, single point] under setting [2].
Consider `CCOC(=O)c1cccc(NC(=O)CN(c2ccc(OC)cc2)S(=O)(=O)c2c(C)noc2C)c1`, for which the AC50 under setting [1] was 22.4 µM [rising, single point] and the AC50 under setting [2] is 31.6 µM [rising, single point].
Turning to `O=C(CCc1nc(-c2ccc(Cl)cc2)no1)NCC1CCCO1` (stereo unspecified), the AC50 was 11.2 µM [falling, single point] under setting [1] and 14.1 µM [falling, single point] under setting [2].
As to `COc1ccc(-c2nc3c(c4c2C[C@H](c2ccccc2)OC4)CN(C(=O)c2ccco2)CC3)c(C)c1`, the AC50 under setting [2] was 0.178 µM [falling, full curve, poor fit].
Turning to `COc1cc2c(cc1OC)CN(C(=O)c1cc3ccccc3oc1=O)CC2`, the AC50 under setting [2] was 31.6 µM [rising, single point].
Same read-out and setting: for `CCc1ccccc1NC(=O)c1cccc(Oc2ccc([N+](=O)[O-])cc2Cl)c1` the value was 0.224 µM [rising, full curve, poor fit]; for `Cc1cccc(NC(=O)c2ccc([N+](=O)[O-])s2)c1C`, 35.5 µM [rising, single point].
For the compound `COc1ccc(CC(=O)NNC(=S)Nc2ccccc2)cc1Br`, the AC50 under setting [2] is 10 µM [rising, single point].
As to `c1nc(NC2CCCCCC2)c2[nH]cnc2n1`, the AC50 by setting is: under setting [1], 14.1 µM [rising, single point]; under setting [2], 17.8 µM [rising, partial curve].
As for `COc1ccc(-c2nnc3ccc(SC)nn23)cc1`, the half-maximal activity concentration (AC50) is, setting by setting: under setting [1], 20 µM [rising, partial curve, poor fit]; under setting [2], 14.1 µM [rising, partial curve, poor fit].
Regarding `CCc1cccc(OCC(=O)Nc2c[nH]c(=O)[nH]c2=O)c1`, the half-maximal activity concentration (AC50) by setting is: under setting [1], 1 µM [rising, full curve, poor fit]; under setting [2], 3.16 µM [rising, full curve].
As to `COc1ccc(CC(=O)N2CCCc3ccccc32)cc1OC`, under setting [2], the AC50 was 20 µM [rising, single point].
As to `O=C(c1ccccc1F)N1CCCC(c2ccccc2)C1` (stereo unspecified), the concentration at half-maximal activity (AC50) under setting [1] is 5.62 µM [rising, partial curve, poor fit].
In the case of `O=S(=O)(Nc1cccnc1)c1ccc(C2CCCCC2)cc1`, under setting [2], the AC50 is 6.31 µM [rising, full curve].
For `Cc1nn(-c2ccccc2)c(C)c1/C=N/NC(=O)CSc1nnc(SCc2ccc(Cl)cc2)s1`, the AC50 is 12.6 µM [rising, single point] under setting [1] and 17.8 µM [rising, partial curve] under setting [2].
For `Nc1ccccc1C(=O)NCCN1CCNC1=O`, the AC50 runs as follows: under setting [1], 0.355 µM [falling, partial curve, poor fit]; under setting [2], 0.282 µM [falling, full curve, poor fit].
Regarding `CCOC(=O)CSc1nc(N)c(C#N)cc1C#N`, the AC50 runs as follows: under setting [1], 20 µM [rising, single point]; under setting [2], 14.1 µM [rising, single point].
As to `CCc1cnc2c(c1SCC(=O)NCc1ccccc1)c(=O)n(C)c(=O)n2C`, under setting [1], the AC50 is 17.8 µM [rising, partial curve, poor fit].
In the case of `O=C(N/N=C/c1ccccc1OC(F)F)C1=COCCO1`, the AC50 under setting [1] was 0.398 µM [falling, full curve, poor fit].
For the compound `Cc1ccc(S(=O)(=O)N(CCC#N)C2CCCCC2)c2nsnc12`, the AC50 under setting [2] was 14.1 µM [rising, single point].
Regarding `Cc1ccc2nsnc2c1NC(=O)c1ccccc1[N+](=O)[O-]`, the AC50 is 5.62 µM [rising, single point] under setting [1] and 6.31 µM [rising, single point] under setting [2].
Take `O=C(Nc1ccc(Cl)c([N+](=O)[O-])c1)C(Sc1ccccc1)c1ccccc1` (stereo unspecified): the half-maximal activity concentration (AC50) runs as follows: under setting [1], 35.5 µM [falling, single point]; under setting [2], 35.5 µM [falling, single point].
`O=S(=O)(NCCOCC(F)(F)C(F)F)c1ccc2oc3ccccc3c2c1`: under setting [2], the AC50 was 15.8 µM [rising, single point].
With `CN(C)c1ncnc2ccc(-c3cccnc3)cc12`, the AC50 by setting is: under setting [1], 15.8 µM [falling, partial curve]; under setting [2], 12.6 µM [falling, single point].
In the case of `COc1ccc(CCNC(=O)C2CC(c3cccc([N+](=O)[O-])c3)=NO2)cc1` (stereo unspecified), the AC50 under setting [2] is 35.5 µM [rising, single point].
As for `O=C1NC(c2cccc([N+](=O)[O-])c2)=CCN1c1ccccc1O`, the AC50 is, setting by setting: under setting [1], 6.31 µM [falling, partial curve, poor fit]; under setting [2], 6.31 µM [falling, single point].
`O=C(Nc1nc2cc3c(cc2s1)OCO3)C1=COCCO1`: the half-maximal activity concentration (AC50) under setting [2] is 31.6 µM [rising, single point].
The same measure, in the same setting: in the case of `CSc1nc(N(C)NC(=O)c2ccccc2)c2ccccc2n1` it was 2.24 µM [rising, partial curve].
Regarding `CN1CCN(C(=O)C(N)Cc2ccccc2)CC1` (stereo unspecified), the AC50 was 11.2 µM [rising, partial curve, poor fit] under setting [1] and 12.6 µM [rising, partial curve, poor fit] under setting [2].
With `CCOC(=O)c1ccc(NC(=O)Cn2nnc(-c3ccccc3)n2)cc1`, the AC50 under setting [2] is 10 µM [rising, single point].
As to `CCOc1ccc(C(=O)Nc2ccncc2)cc1`, under setting [2], the AC50 was 20 µM [rising, partial curve].
Consider `O=C(COC(=O)c1ccccc1NS(=O)(=O)c1ccc(Cl)cc1)NCc1ccccc1`, for which the AC50 is, setting by setting: under setting [1], 17.8 µM [rising, single point]; under setting [2], 22.4 µM [rising, single point].
Take `O=C(Nc1cccc(C2=NCCN2)c1)Nc1cccc(C2=NCCN2)c1`: the AC50 under setting [1] is 0.0794 µM [falling, full curve, poor fit].
For the compound `Cc1ccc(-c2nc3ncccn3c2Nc2ccccc2C)o1`, under setting [2], the AC50 is 0.631 µM [falling, partial curve, poor fit].
For `COc1ccc(C(=O)N2CCCC(c3ccccc3)C2)cc1` (stereo unspecified), the AC50 under setting [2] was 20 µM [rising, partial curve].
With `COCCCN(C(=S)NC(=O)C12CC3CC(CC(C3)C1)C2)c1c(N)n(Cc2ccccc2)c(=O)[nH]c1=O`, the half-maximal activity concentration (AC50) reads like this: under setting [1], 0.0794 µM [falling, full curve, poor fit]; under setting [2], 0.112 µM [falling, full curve, poor fit].
With `COCCN(C(=O)CSc1nnc2cc(C)c3ccccc3n12)c1c(N)n(Cc2ccccc2)c(=O)[nH]c1=O`, the AC50 is 3.98 µM [rising, full curve] under setting [1] and 3.55 µM [rising, full curve] under setting [2].

What is called AC50 is the concentration giving half of the maximal activity seen.
